From article PMC8136815
Results are given in words; binding and its absence hold for the method and conditions named. In cells and extracts the contact can be indirect. Sequences can lack the tags named with a protein.

Biological target: FLAG-tagged ERG variant lacking the CTAD region (human)
Assay: co-IP; RNase A-treated lysates of HEK293 cells transfected with Myc-RBFOX2 and FLAG-tagged proteins; anti-FLAG immunoprecipitation, anti-Myc and anti-FLAG Western blot

B1: Myc-tagged RBFOX2 (protein, UniProt O43251 1-390)
chain: MQNEPLTPGYHGFPARDSQGNQEPTTTPDAMVQPFTTIPFPPPPQNGIPTEYGVPHTQDYAGQTGEHNLTLYGSTQAHGEQSSNSPSTQNGSLTTEGGAQTDGQQSQTQSSENSESKSTPKRLHVSNIPFRFRDPDLRQMFGQFGKILDVEIIFNERGSKGFGFVTFENSADADRAREKLHGTVVEGRKIEVNNATARVMTNKKMVTPYANGWKLSPVVGAVYGPELYAASSFQADVSLGNDAAVPLSGRGGINTYIPLISLPLVPGFPYPTAATTAAAFRGAHLRGRGRTVYGAVRAVPPTAIPAYPGVVYQDGFYGADLYGGYAAYRYAQPATATAATAAAAAAAAYSDGYGRVYTADPYHALAPAASYGVGAVASLYRGGYSRFAPY
binding: no binding
